According to publication doi:10.1101/2025.11.23.689998:
Results are given in words; binding and its absence hold for the method and conditions named. In cells and extracts the contact can be indirect. Some entries that bind do so weakly or less than the wild type. Values belong to the substance of their own block, whether it stands above or below them.

Chains of the proteins cited; added tags and fusions are not shown. A line that says so, or that is headed by a name, gives the form on record, which may keep a tag or linker. Residues count along the entry.
RBOHD N-terminus (aa1-376) fused to cLuc (Q9FIJ0, residues 1-376): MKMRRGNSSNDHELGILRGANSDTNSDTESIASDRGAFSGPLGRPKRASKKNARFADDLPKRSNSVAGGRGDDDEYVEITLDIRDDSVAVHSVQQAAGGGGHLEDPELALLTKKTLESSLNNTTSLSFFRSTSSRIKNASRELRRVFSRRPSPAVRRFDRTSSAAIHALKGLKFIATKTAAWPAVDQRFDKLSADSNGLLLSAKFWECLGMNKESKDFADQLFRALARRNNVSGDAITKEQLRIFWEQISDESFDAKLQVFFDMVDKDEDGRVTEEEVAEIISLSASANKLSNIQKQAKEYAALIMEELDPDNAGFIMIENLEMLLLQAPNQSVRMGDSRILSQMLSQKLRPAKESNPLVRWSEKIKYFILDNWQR
RBOHD C-terminus (aa756-922) fused to cLuc (Q9FIJ0, residues 756-921): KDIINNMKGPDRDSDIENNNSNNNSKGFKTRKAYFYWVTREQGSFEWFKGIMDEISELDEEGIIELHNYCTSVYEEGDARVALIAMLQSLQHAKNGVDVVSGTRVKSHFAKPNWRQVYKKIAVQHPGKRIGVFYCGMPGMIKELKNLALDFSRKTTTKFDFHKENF
UniProt Q8GYA4, residues 348-634: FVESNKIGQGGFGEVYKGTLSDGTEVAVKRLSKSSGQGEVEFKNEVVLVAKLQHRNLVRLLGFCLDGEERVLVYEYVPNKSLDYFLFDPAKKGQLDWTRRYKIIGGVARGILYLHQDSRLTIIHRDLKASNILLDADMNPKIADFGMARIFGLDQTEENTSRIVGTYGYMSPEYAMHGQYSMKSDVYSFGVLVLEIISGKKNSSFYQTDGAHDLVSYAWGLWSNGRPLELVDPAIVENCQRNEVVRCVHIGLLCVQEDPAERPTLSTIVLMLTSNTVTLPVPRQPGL
UniProt Q9ZV07: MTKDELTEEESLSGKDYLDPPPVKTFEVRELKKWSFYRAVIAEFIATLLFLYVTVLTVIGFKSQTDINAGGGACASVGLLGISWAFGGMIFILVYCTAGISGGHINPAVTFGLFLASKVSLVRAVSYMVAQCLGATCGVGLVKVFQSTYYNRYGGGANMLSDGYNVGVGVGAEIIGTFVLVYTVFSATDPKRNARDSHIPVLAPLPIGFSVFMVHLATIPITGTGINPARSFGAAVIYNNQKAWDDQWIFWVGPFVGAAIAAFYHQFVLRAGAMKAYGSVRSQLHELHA
UniProt Q9SCZ4, residues 470-895: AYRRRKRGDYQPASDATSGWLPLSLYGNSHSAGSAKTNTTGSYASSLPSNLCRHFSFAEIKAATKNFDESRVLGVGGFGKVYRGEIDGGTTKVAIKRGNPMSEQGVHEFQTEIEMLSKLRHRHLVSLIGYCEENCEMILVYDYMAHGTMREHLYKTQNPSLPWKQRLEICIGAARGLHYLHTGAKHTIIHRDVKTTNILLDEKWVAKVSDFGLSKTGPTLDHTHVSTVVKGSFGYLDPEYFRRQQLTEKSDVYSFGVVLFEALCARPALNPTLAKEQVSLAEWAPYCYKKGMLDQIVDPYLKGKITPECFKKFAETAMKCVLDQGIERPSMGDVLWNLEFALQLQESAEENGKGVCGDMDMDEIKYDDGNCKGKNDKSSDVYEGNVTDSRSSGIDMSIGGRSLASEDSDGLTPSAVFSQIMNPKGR
UniProt P14713: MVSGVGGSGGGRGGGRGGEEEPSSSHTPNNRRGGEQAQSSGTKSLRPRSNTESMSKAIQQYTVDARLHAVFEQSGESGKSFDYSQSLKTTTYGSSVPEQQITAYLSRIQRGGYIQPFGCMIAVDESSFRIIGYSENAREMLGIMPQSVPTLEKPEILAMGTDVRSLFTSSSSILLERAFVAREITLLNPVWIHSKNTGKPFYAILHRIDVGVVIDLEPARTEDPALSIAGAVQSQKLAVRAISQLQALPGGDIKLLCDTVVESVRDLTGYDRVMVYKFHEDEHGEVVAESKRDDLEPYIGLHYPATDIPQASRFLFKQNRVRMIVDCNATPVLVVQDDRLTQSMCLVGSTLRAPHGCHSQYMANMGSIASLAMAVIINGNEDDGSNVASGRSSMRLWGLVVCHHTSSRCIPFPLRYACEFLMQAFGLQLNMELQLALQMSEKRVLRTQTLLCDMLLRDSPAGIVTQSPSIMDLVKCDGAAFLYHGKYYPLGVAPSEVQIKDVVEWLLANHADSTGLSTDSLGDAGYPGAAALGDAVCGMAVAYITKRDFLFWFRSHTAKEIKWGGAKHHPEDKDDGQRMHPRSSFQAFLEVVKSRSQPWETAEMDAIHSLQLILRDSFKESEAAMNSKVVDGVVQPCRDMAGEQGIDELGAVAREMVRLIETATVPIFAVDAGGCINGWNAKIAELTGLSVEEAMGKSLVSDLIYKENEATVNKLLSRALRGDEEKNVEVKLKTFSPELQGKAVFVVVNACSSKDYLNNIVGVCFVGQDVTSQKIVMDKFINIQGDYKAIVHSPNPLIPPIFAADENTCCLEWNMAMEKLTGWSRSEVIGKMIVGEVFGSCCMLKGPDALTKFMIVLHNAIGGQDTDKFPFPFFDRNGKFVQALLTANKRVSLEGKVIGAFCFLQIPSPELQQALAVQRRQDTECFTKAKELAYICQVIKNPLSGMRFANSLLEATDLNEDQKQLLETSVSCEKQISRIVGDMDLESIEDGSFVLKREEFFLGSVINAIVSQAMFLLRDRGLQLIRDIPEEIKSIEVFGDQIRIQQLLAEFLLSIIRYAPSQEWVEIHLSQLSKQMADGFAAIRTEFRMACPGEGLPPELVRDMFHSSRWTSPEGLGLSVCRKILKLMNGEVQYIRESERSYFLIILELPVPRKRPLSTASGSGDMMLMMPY

What was measured:
[1] = molecular target: MBP-RBOHD N-terminus (aa1-376) (Arabidopsis thaliana) (UniProt Q9FIJ0); experiment: pull-down
[2] = molecular target: MBP-RBOHD C-terminus (aa756-922) (Arabidopsis thaliana) (UniProt Q9FIJ0); experiment: pull-down
[3] = molecular target: RBOHD N-terminus (aa1-376) fused to cLuc (Arabidopsis thaliana) (UniProt Q9FIJ0); experiment: split reporter
[4] = molecular target: cytosolic domain of CRK10 (aa348-634) fused to nLuc (Arabidopsis thaliana) (UniProt Q8GYA4); experiment: split reporter
[5] = molecular target: full length PIP2-6 fused to nLuc (Arabidopsis thaliana) (UniProt Q9ZV07); experiment: split reporter
[6] = molecular target: cytosolic domain of FER (aa470-895) fused to nLuc (Arabidopsis thaliana) (UniProt Q9SCZ4); experiment: split reporter
[7] = molecular target: RBOHD C-terminus (aa756-922) fused to cLuc (Arabidopsis thaliana) (UniProt Q9FIJ0); experiment: split reporter

- binding [1]: binds
- binding [2]: binds
Substance: HA-phyB (full length PhyB with N-terminal 3x-HA) (from UniProt P14713 1-1172)

Substance: cytosolic domain of CRK10 (aa348-634) fused to nLuc (from UniProt Q8GYA4 348-634) (domain or fragment)
- binding [3]: binds

Substance: cytosolic domain of FER (aa470-895) fused to nLuc (from UniProt Q9SCZ4 470-895) (domain or fragment)
- binding [3]: binds

Substance: full length PhyB fused to cLuc (from UniProt P14713 1-1172)
- binding [4]: binds
- binding [5]: binds
- binding [6]: binds

Substance: full length PhyB fused to nLuc (from UniProt P14713 1-1172)
- binding [7]: binds
- binding [3]: binds
